Paper PMC5996148
“And” between values parts separate entries of the source, which are not always exact repeats. Equal entries are not always repeated. This is one part of the list.

What was measured:
Test in all cases: protein microarray (ProtoArray v5.0), streptavidin-Alexa Fluor 647
Conditions in all cases: 3'-biotin; 20 mM Tris (pH 7.5), 5 mM MgCl2, 100 mM KCl, 0.1% Tween-20, A/T-rich and random oligonucleotide blockers; temperature not stated; high values mean tight binding
IGJ (human) = tested on: IGJ (human)
IGKC (human) = tested on: IGKC (human)
IGL@ (human) = tested on: IGL@ (human)
IGLV2-14 (human) = tested on: IGLV2-14 (human)
IGSF1 (human) = tested on: IGSF1 (human)
IL17A (human) = tested on: IL17A (human)
IL18BP (human) = tested on: IL18BP (human)
IL1B (human) = tested on: IL1B (human)
IL1F8 (human) = tested on: IL1F8 (human)
IL1RN (human) = tested on: IL1RN (human)

Q: “GGTGACAGGGGTATGGGGAGGGG [G4-2 biotinylated (Ct1)]” was tested. Which binding signal (IGJ (human)) did it give?
A: The binding signal was -0.369 z-score.

Q: And the binding signal (IGKC (human))?
A: Its binding signal is -0.366 z-score.

Q: What about the binding signal (IGL@ (human)) of the same sequence?
A: Its binding signal is -0.398 z-score.

Q: What about the binding signal (IGLV2-14 (human)) of the same sequence?
A: The binding signal was -0.377 z-score and -0.358 z-score.

Q: What about the binding signal (IGSF1 (human)) of the same sequence?
A: The binding signal was -0.374 z-score.

Q: What about the binding signal (IL17A (human)) of the same sequence?
A: Its binding signal is -0.385 z-score.

Q: And the binding signal (IL18BP (human))?
A: Its binding signal is -0.376 z-score.

Q: What about the binding signal (IL1B (human)) of the same sequence?
A: The binding signal was -0.404 z-score.

Q: And the binding signal (IL1F8 (human))?
A: The binding signal was -0.396 z-score.

Q: What about the binding signal (IL1RN (human)) of the same sequence?
A: Its binding signal is -0.389 z-score.
